# Measured values published in article PMC11312810.
# Sequences of proteins named here, by UniProt entry; tags and fusion partners are left off.
# UniProt Q9H4L4: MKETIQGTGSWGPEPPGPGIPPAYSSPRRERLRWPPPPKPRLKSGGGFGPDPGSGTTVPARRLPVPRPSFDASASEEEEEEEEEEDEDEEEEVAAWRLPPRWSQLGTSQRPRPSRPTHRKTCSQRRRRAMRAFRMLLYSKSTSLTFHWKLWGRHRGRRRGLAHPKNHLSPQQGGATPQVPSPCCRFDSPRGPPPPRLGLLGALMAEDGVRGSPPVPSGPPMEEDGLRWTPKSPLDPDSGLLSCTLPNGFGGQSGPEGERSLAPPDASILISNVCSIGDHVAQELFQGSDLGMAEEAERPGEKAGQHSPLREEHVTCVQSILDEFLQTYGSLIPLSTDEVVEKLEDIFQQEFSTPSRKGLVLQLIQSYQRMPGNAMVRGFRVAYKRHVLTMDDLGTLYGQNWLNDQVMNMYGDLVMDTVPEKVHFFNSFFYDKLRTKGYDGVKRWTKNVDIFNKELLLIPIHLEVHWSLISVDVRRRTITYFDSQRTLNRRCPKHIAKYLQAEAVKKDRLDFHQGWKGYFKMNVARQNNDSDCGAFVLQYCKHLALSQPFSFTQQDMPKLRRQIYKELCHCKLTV
# These are yes or no findings as the source states them, for the method shown. Binding seen in cells or lysates may run through a third protein. Some binding calls cover weakened binding; strength is not graded here. For some assays here: Tags and fused reporters may be left off the sequences shown.
# How the values were obtained:
# FLAG-IRF4 = target: T1, FLAG-IRF4 (UniProt Q15306); experiment: co-IP; HEK293T cells transfected with Myc-SENP3 and FLAG-IRF4 for 48 h; whole cell lysate with anti-Flag magnetic beads overnight at 4 C, washed 5 times; immunoblot with FLAG and Myc antibodies
# T1 sequence: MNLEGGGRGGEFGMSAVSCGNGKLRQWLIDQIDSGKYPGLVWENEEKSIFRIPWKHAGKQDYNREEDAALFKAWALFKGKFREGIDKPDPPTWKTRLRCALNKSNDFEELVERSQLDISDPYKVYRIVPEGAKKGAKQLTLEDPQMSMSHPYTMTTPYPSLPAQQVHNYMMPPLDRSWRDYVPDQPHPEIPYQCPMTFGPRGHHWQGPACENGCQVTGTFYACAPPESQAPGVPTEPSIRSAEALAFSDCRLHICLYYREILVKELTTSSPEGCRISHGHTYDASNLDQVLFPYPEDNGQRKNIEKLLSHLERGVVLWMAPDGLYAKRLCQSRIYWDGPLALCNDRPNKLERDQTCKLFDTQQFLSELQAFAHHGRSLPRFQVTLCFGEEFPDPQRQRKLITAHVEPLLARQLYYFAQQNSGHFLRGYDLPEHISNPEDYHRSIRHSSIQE
# [1] = target: T2, IRF4 (endogenous, THP-1-derived macrophages) (human (endogenous in THP-1)) (UniProt Q15306); experiment: co-IP; THP-1 cells after PMA 48 h (M0), then IL-4 and IL-13 48 h (M2); whole-cell lysates, IRF4 antibody on Protein A/G magnetic beads, 4 C 4 h; immunoblot with SUMO2/3, SENP3 and IRF4 antibodies
# T2 sequence: T1 sequence
Substance,binding (FLAG-IRF4),binding [1]
Myc-SENP3 (from UniProt Q9H4L4 1-574) (enzyme),binds,
"SENP3 (endogenous, THP-1-derived macrophages) (from UniProt Q9H4L4 1-574) (enzyme)",,binds
